Results reported in paper PMC5760070.
No constants are given. Whether binding was seen depends on the method and setting. In cells and extracts the contact can be indirect. Some results given as binding are weak or reduced against the parent protein; the word gives no strength.

Amino acid sequences for entries named in this document (tags omitted).
UniProt O33269: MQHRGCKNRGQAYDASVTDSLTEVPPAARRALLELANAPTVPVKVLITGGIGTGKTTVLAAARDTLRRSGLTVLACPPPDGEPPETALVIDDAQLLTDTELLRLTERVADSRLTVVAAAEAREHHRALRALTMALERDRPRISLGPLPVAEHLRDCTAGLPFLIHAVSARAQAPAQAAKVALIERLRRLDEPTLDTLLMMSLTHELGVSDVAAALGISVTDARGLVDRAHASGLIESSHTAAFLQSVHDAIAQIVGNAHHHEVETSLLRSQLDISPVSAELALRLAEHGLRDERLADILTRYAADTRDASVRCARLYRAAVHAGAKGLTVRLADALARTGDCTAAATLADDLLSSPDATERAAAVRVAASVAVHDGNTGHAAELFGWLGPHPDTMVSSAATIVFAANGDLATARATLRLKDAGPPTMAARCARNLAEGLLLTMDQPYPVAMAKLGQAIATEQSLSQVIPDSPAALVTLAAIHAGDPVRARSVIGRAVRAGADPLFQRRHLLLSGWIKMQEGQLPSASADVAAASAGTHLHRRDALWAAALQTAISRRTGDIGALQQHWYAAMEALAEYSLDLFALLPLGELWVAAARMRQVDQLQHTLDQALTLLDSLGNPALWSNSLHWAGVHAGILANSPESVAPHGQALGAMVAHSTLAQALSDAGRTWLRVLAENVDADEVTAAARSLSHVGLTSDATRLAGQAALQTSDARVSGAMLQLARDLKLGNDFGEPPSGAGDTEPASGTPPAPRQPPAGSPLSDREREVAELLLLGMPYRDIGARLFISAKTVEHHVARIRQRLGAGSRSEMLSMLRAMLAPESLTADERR

Target: FLAG-tagged IniRMtb (Rv0339c, iniBAC Regulator of M. tuberculosis) (M. tuberculosis) (UniProt O33269)
Assay: cross-linking

With “FLAG-tagged IniRMtb (Rv0339c, iniBAC Regulator of M. tuberculosis) (from UniProt O33269 1-832)” the binding was “binds”.
